Laboratory results from PubChem BioAssay AID1347423 (Functional Genomics Laboratory (NCATS/FGL), 2020).
Screen size: about 52,000 sequences; about 210 (0.4%) were called active.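 Rule for the calls: active = gene whose silencing raises cell survival under the drug, median off-target-corrected z-score across its silencing RNAs 2 or more; inactive = the rest.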 The list shows a part of the results.

Assay: Resistance to Poly (ADP-Ribose) Polymerase inhibitor: Gene Identification via Genome-wide siRNA Screen
Details: mouse BRCA2 R2336H ES cells, olaparib, CellTiter-Glo viability; hits give high values
Summary of the method: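 Genome-wide siRNA screen (3 siRNAs/gene, 20 nM) in mouse ES cells carrying hypomorphic BRCA2 R2336H; olaparib 500 nM added 48 h post-transfection, CellTiter-Glo viability 72 h later. Normalized to plate-median negative control; MAD z-scores, gene median, seed-adjusted.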
For CGAGCUAUCCACUUAAUCATT against Irak3, the z-score was inactive: 0.638.
In the case of GGCUGGUAUCUUUCAGAGUTT against Cox6c, the z-score is reported as inactive: 0.109.
With CCAAGUCGUAAUCUAGAAGTT against Scn7a the z-score was inactive: 2.2.
In the case of CGAUUAGUCUCUCAUUAUUTT against Ipo11, the z-score is reported as inactive: 0.42.
In the case of GGAAAAAGCCCUUGAACAUTT against Tnnt1, the z-score is reported as inactive: -0.581.
With “GGCUAUGAGGACUCCUAUGTT against A430081P20Rik” the z-score was inactive: -1.13.
For “GCAAGUGGUUGAUUGAGAATT against 2510027N19Rik”, the z-score was inactive: -1.23.
With GCCUUUUGAGUAUAACGAATT against Zfp248 the z-score was inactive: -0.172.
In the case of GCAAUCGAGCUGAAACUAGTT against Hat1, the z-score is reported as inactive: -0.864.
With “GGAACAGUAUAUAAGUUCATT against 1700129L13Rik” the z-score was inactive: -1.12.
For GCUGAUCCUUAACUUAAAGTT against Adam1b, the z-score was inactive: -0.899.
In the case of “CGAACCAUUUCGUAAAGUUTT against 6330415M09Rik”, the z-score is reported as inactive: -0.187.
In the case of CCCAGAACACCGUAUACUUTT against Itga3, the z-score is reported as inactive: -1.2.
With GGAAGCCAAAGAAAAGUUCTT against Ski the z-score was inactive: 0.403.
For GGAGAGCACAAAGAACAUUTT against Med6, the z-score was inactive: 0.125.
In the case of “GGAUUUCAUCAGUGUUCUUTT against 2810430M08Rik”, the z-score is reported as inactive: -0.982.
With GGACUAUGGGUGCACCAAUTT against Wbscr5 the z-score was inactive: -0.656.
In the case of GCUGUUUGACUACAUAAUCTT against Melk, the z-score is reported as inactive: 0.0434.
With GGAUUUAUGUGGACAACGCTT against Dnahc8 the z-score was inactive: 1.35.
For GGGCAUCUUCUGCUACUUCTT against Slc24a6, the z-score was inactive: 0.46.
In the case of “CCGAAGGACAGUGUUUAUUTT against 2600014M03Rik”, the z-score is reported as inactive: 0.742.
In the case of GGAGAUAUGUUCAUUGUUCTT against Rasa1, the z-score is reported as inactive: -0.188.
With GGCUAUGAAGAAAACAUGUTT against Gpx7 the z-score was inactive: 0.412.
In the case of GGUAUAUAGGGCUGUGGCUTT against Pigs, the z-score is reported as inactive: 1.45.
In the case of CCAGACUAUUUAACUUGAGTT against Adrb2, the z-score is reported as inactive: 1.18.
In the case of GGAUUGCCGAAACUGUACATT against Ucp1, the z-score is reported as inactive: -1.48.
With “CCUAUAGCAGUGGUUUUCATT against 1810009K13Rik” the z-score was inactive: -0.451.
With CCAGUCCGAUGUUUGUUAUTT against Cnbp2 the z-score was inactive: -0.496.
With CGUAGGCACCUAUGGUAUATT against H2-Aa the z-score was inactive: -0.84.
In the case of “GGCCAAGGAAAUAUCAAUGTT against 5430428G01Rik”, the z-score is reported as inactive: -0.285.
For “GGCCCAUAUCUGCUCUCAUTT against A430110N23”, the z-score was inactive: 0.339.
With GCAUGCAUCGAUUGUGCGCTT against Scml4 the z-score was inactive: -0.575.
With GCUACCUCAACAUGGAUGCTT against Pcca the z-score was inactive: 1.24.
In the case of GGCAGCUUUACGAUGUACATT against Lcn2, the z-score is reported as inactive: -0.897.
With “GCUUCCUGUGUCUAUUUAUTT against 5230400J09Rik” the z-score was inactive: 0.263.
In the case of GCGGCAAGUGGACUUUUCATT against Dlc1, the z-score is reported as inactive: -0.441.
In the case of GGAAGACUCCUCAUACCUGTT against Ddit4, the z-score is reported as inactive: 0.334.
In the case of “GGAAGAGGAAGAAAAAAAGTT against 1700042N06Rik”, the z-score is reported as inactive: -1.32.
In the case of GAUUUUCUGUAUCCAUCUATT against Olfr725, the z-score is reported as inactive: -0.178.
In the case of “GGAUAACAAACCUGAAUCATT against 5430438H03Rik”, the z-score is reported as inactive: 1.47.
In the case of GGAAACUGUCAUCGAUAGGTT against Dlgap4, the z-score is reported as inactive: 0.146.
With GGCCAGUACUUUGCUAAACTT against Hnrpa1 the z-score was inactive: 1.07.
In the case of CCUGACCAAUGAAACCUUATT against Il22ra2, the z-score is reported as inactive: 0.404.
With “GAUGUACUUGAUAAAGCCUTT against 0610033E06Rik” the z-score was inactive: 0.412.
For “GGACCACUCUGGUGGAUAATT against Simp-pending”, the z-score was inactive: -1.99.
With CGACAGUGAAUGCGCUAAGTT against Slc7a9 the z-score was inactive: 1.03.
With GGCCUUGGUGAAAAUGCAGTT against Hrasls the z-score was inactive: -1.32.
In the case of GCUGACUGAAUCACAAGCCTT against BC024139, the z-score is reported as inactive: 0.593.
With GGACGAUAAGCUUAGCCCUTT against Nfkbib the z-score was inactive: 1.22.
In the case of CCGACCACUACACAAGCCUTT against Olfr449, the z-score is reported as inactive: 0.306.
In the case of GCAUAUGACCUAAGAGUGATT against Slc6a7, the z-score is reported as inactive: 1.62.
In the case of GCCCAUGAAAGAUGAUAUCTT against Ak2, the z-score is reported as inactive: 0.75.
In the case of CCGCCUCCUGACAAAAGUGTT against Trim17, the z-score is reported as inactive: -0.235.
In the case of GGAAGAGGAGAAGAAAAAGTT against Gcipip, the z-score is reported as inactive: -1.02.
For UCUCCUACCUAUGCACAUATT against Panx2, the z-score was inactive: -0.944.
With GGCAUGGUUUGGAUUUGCGTT against Camk2b the z-score was inactive: 0.162.
With “GCUCCUGGCAUUAUUUUUUTT against 6530401C20Rik” the z-score was inactive: 1.04.
In the case of CCAUAAGCACAUGAUUGAGTT against Prlpo, the z-score is reported as inactive: 1.14.
With GGUGGUUAGAUUGUCAUGCTT against V1rd7 the z-score was inactive: 0.486.
In the case of GCGAAUCACGCUGAAAGUCTT against Pdcd1lg1, the z-score is reported as inactive: -0.398.
For GGACACAAUUGAAAUAGACTT against Slc5a1, the z-score was inactive: 0.991.
In the case of “CCUAUACCCUGGAAAGGCATT against F630022B06Rik”, the z-score is reported as inactive: -0.944.
For GCGGAAGUCGACCUUUGAUTT against Cd164, the z-score was inactive: -0.745.
For GGCAAGAUCUUCAAGUGAATT against Eef1g, the z-score was inactive: 1.94.
In the case of GCCCUUCAUGCUCAUGAGUTT against Hccs, the z-score is reported as inactive: -0.97.
With GGCUGUGUAUUACUGCGCUTT against Vpreb2 the z-score was inactive: -0.248.
